Measurements published in PubChem BioAssay AID1508600 (Functional Genomics Laboratory (NCATS/FGL), 2020).
The campaign covered roughly 53,000 sequences. About 3,700 (7%) were called active.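 The calls were made as follows: active = gene knockdowns whose robust z-score for IL-1 alpha signal is at least 2 or at most -2, so actives lie on both sides; inactive = the rest.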 This is one part of the list.

Experiment: Components of the Cytosolic LPS Sensing Pathway: Gene Identification via Genome-wide siRNA Screen;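 also: robust z of the log signal after scaling to non-targeting control siRNA wells of the plate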
Conditions: RAW264.7 macrophages, IL-1a HTRF, actives lie on both sides, screened at 100 nM (by protocol), cells primed 5 h with Pam3CSK4 first
In short: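 RAW264.7; siRNA 100 nM final, RNAiMAX, 48h 37 degrees C; Pam3CSK4 5 h; LipidA + TransIT-TKO 24 h; IL-1a HTRF; CellTiter-Glo viability; robust z vs negative-control median.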

| Sequence | z-score |
| --- | --- |
| GGUUCUACAGAUGGUGUCUTT against Tnfrsf23 | inactive: -0.94 |
| GGUGUUGGAUGGGAUCCCUTT against Rpl13a | inactive: 1.04 |
| GGAAGAAAGAAUCAAGCUGTT against Tnfsf14 | inactive: -0.17 |
| GGCAAGACAUCAGCUAGUATT against Pcdhgc5 | inactive: -0.596 |
| GGUGGAUCCUGACAUGUUCTT against Dcaf12l1 | inactive: -1.55 |
| GCGAUUCUUGAUAAAGAGGTT against Hsfy2 | inactive: -1.13 |
| GGAACAGAAGUCAAGUGGATT against Acsm5 | active: 2.69 |
| GCUCUAAGCUUCUAGAUCATT against Csf3 | inactive: 0.403 |
| CGGGAAAGAGAUCAUCCCUTT against Nr1i2 | active: -3.3 |
| GGAACUCCAGCAACUGCCATT against Prl3a1 | inactive: 1.95 |
| GGUGAAGAAGAGUCUCAAATT against Mrnip | inactive: 1.6 |
| CGCCUUGUAUCUUUUACAUTT against Taf1a | inactive: -0.0637 |
| GGACUGAGUCAGAUUUACATT against Foxn2 | inactive: -0.622 |
| GCUCCUUUGGCCAUAUUAATT against Dnm2 | inactive: 0.873 |
| GGUUAAAGAAGAUAAUCAGTT against Ift74 | inactive: 0.723 |
| GGAAAAGCAAAAUCUCCGCTT against Cpne9 | inactive: 1.93 |
| CGAGCAUUUGAAUCGACUATT against Vti1b | inactive: -0.479 |
| GGCUUGUGAAUGGAAAUAATT against Hsp90aa1 | inactive: -0.416 |
| GCUGUCUACCAAAGUGACGTT against Cdh1 | inactive: -0.151 |
| GGAGUUCCAUAGCUGUCAATT against Adra1b | inactive: -1.58 |
| GAUGAAAGCUACAAUGAAGTT against Srpx2 | inactive: 1.67 |
| GCCUUCCUAGAGCUCUUUGTT against Olfr792 | inactive: -0.403 |

Random excerpt: 3 entries already listed

| Sequence | z-score |
| --- | --- |
| GCUGUCUACCAAAGUGACGTT against Cdh1 | inactive: -0.151 |
| GGAAGAAAGAAUCAAGCUGTT against Tnfsf14 | inactive: -0.17 |
| GCCUUCCUAGAGCUCUUUGTT against Olfr792 | inactive: -0.403 |

(list continues)

| Sequence | z-score |
| --- | --- |
| GGAUGAGAAGAAAGAAGAUTT against Srrt | inactive: -1.36 |
| GGAAGUGGACCAUUUCUUUTT against Olfr1359 | inactive: 0.719 |
| GGAAUUUUUAGGAAUGGUGTT against Slc35f2 | inactive: -1.38 |
| GCGAUGUCAAUCAAUUCUGTT against Gpr37l1 | inactive: 0.513 |
| AAAAAGGUGUCACCUUUCUTT against Vmn2r43 | inactive: 1.32 |
| GGAGAUCUUCGAUGACAAUTT against Dvl1 | inactive: 0.34 |
| CCUGAGAUCAAGAACGACATT against Crat | inactive: 0.899 |
| GGUUUCGGAUAAAGCCAAUTT against Wif1 | inactive: 0.917 |
| GGGACAAUGUACAUCUACUTT against Dnaaf6b | inactive: -0.199 |
| CCCUUCUCUGAGACAACACTT against Tcirg1 | inactive: 1.42 |
| GCAUCCUAGAGGAUCAAUCTT against Smarcb1 | inactive: -1.25 |
| GGGAGUUGAGAAGACAUAATT against Lim2 | inactive: 0.223 |
| GCAGGGAUUUUAACCAAUATT against Inf2 | inactive: 1.41 |
| GCGGGAGAAGCUAAUGAAATT against Ndufs5 | active: 2.21 |
| GGAACCUUAGUGGAGGAUATT against Icos | inactive: 0.712 |
| GCAACUUAAUACUAGGUGATT against Acad11 | inactive: -1.21 |
| GGCCUGGAAACGUAUUUACTT against Snx24 | inactive: 0.717 |
| GGCACUCAGGCUUAAUCAUTT against 9530003J23Rik | inactive: -0.88 |
| GCAAAUGAUUCUUGUCAAATT against Cog7 | inactive: 0.397 |
| GACUGUAAUGAAGCAUUUATT against Rad21 | inactive: -1.68 |
| GCCAGUGGGAUGUCAAAAATT against Zc3h11a | inactive: -0.434 |
| CCCAUUUGAGUGUACAUAATT against Fam107b | inactive: 1.38 |

Exported bar-delimited: entries from further up
Sequence | z-score
GGAAGUGGACCAUUUCUUUTT against Olfr1359 | inactive: 0.719
GGAAUUUUUAGGAAUGGUGTT against Slc35f2 | inactive: -1.38

Further results follow.

| Sequence | z-score |
| --- | --- |
| GGCUUUGCUAUCAACUCGCTT against Pla2g4f | inactive: -1.02 |
| CCAAAGUGGACAAAUUAGUTT against Pank2 | inactive: 0.461 |
| CGCAUCAACACCUUCGUGATT against Kcnk3 | inactive: -1.21 |
| AAUACCUAGACUGACAUGUTT against Trp53rkb | inactive: -0.122 |
| CCGAAGCCUAAGGUCCAAATT against Rpl29 | inactive: -0.0939 |
| GGAAGAUUCCAAAACUAGATT against Ttc26 | inactive: -1.05 |
| GGUUUCACUGACAAAACUATT against Zim1 | inactive: 0.235 |
| GCGAUCUAGUUUCAUUAAATT against Prpf19 | inactive: 0.24 |
| GGAGGAAGAAACAGAACCATT against Ankrd33 | inactive: 0.17 |
| GCUCCUUAGAGAGAGUAUUTT against Sod3 | inactive: -0.399 |
| CCCAACUAGUGUAGCUAUCTT against Usf1 | inactive: -1.95 |
| GGUCCUGUUAAACUGAAAGTT against Fkbp1a | inactive: -1.45 |
| GCAGACAAAGAUCGCCAAATT against H2-Q5 | inactive: 0.795 |
| GGGACAACAAUGGUUUAGGTT against Tsga13 | inactive: -1.8 |
| GCAACUGUACACUAGAUACTT against Dcun1d1 | inactive: 0.00276 |
| GGUCAAGUUUGACCUCAAGTT against Mybpc3 | inactive: -0.971 |
| CCGGACUCAGUUAUGGAAGTT against Gpr135 | inactive: 0.883 |
| CCUAAAGUGAUUGCUGAUUTT against Olfr1202 | inactive: 0.632 |
| GGAGAGUUAUUUGACCACCTT against Emd | inactive: 1.97 |
| GGGUUCAGACUGCUUCUUATT against 2900005J15Rik | inactive: -0.845 |
| GGCACAAACUAGAUGCAGATT against Ccdc68 | inactive: -0.669 |
| GGCCAAGGAAAUAUCAAUGTT against Alg14 | active: 2.69 |

| Sequence | z-score |
| --- | --- |
| GGACAUUAUCCUCAGGGUGTT against Ccm2 | inactive: -1.61 |
| GGAUGAAAAACUUUGAAACTT against Hao1 | inactive: -0.136 |
| GGGAAUCUAAGCUGUAUUUTT against Lyzl1 | inactive: -0.725 |
| CCUUUUCAGCAGAAUAUCGTT against Ifnar1 | inactive: 0.427 |
| GGCCUACAUACUCCUGAAGTT against Ttc21a | inactive: -1.28 |
| GGUAGCACUUACGUGAAAUTT against Mbd2 | inactive: -0.655 |
| GGGACACUUUCACUUGUUCTT against Rmnd5a | inactive: 0.159 |
| GGUCGAACUUCUGUGCCAUTT against Slc39a8 | active: 2.39 |
| GCAUGAUACCAAUAGAGAATT against Acot4 | inactive: -0.0439 |
| GGAGAUGGAGUGAAUUGGCTT against 4933404G15Rik | inactive: -0.993 |
| GCAACAAUCUAACCUCAGATT against Mela | active: -2.3 |
| CCUCCAAUCCGUUGAAGAATT against Zfp935 | inactive: -0.6 |
| CCAACAAUAAACGAGGUCCTT against Mnt | inactive: 0.697 |
| GCCUGUAUACAUAAGUAAATT against Syngr4 | inactive: -0.281 |
| GAAGUACAAGGUAGAGUACTT against Mgst3 | inactive: -0.428 |
| GGAUUUCUCUGCCUGUACUTT against Gdpgp1 | inactive: 0.37 |
| GGACUCCUUUAAGCCACUUTT against Prkag1 | inactive: -1.39 |
| GGCCUUUUCAUUGUUUGACTT against Myl4 | inactive: -1.47 |
| GGAGUACCUGUGGUGCAUUTT against Ahcy | inactive: 0.213 |
| GCUACAUAAUUCCGAAGUUTT against Fmr1 | active: 2.23 |
| GGAAGCUGGCAAGUUUAUGTT against Cfap161 | inactive: -0.159 |
| CGACAAGAAAACAUACUAGTT against Gins4 | active: 2.28 |

| Sequence | z-score |
| --- | --- |
| GGCCCAAGAUUUCAAUUAGTT against 9130230L23Rik | inactive: -0.0833 |
| GGACAAAGUAUUUGUGACCTT against Cd3d | inactive: 0.00913 |
| CCUGGUAGCUUCUUCUCAATT against Krt4 | inactive: 1.03 |
| GGCCGGCUAAAGGCUUUUUTT against Olfr1019 | inactive: 0.858 |
| GGGCAGACAGUUUACAGAATT against Aco1 | inactive: -0.634 |
| GGUUUAAUUCUUGUCUUGUTT against Pvt1 | inactive: -0.928 |
| GGAAUGAAAGUUCCACUAUTT against Emcn | inactive: -0.633 |
| GCAAAUCGGCCAAGAGAUGTT against Vti1a | inactive: 0.199 |
| CAGCGGCCGCGCUUCACCGTT against 4930404N11Rik | inactive: 0.92 |
| GGGUCGAUUGUCAAUAUCATT against Pecr | inactive: 0.478 |
| GCAGAUCGCAAAAGAUCCUTT against Nppa | inactive: 0.69 |
| GGACAAAGUUGUUCCUUCUTT against Zfp13 | active: -2.62 |
| GGCCCUACCCAUUCAUUCUTT against Asb6 | inactive: 0.212 |
| CGUUGCUGUUGUGGUCUUGTT against Olfr1232 | active: -2.71 |
| GGGAAGUUGUCCUUGAAGATT against Cd36 | inactive: -0.037 |
| GCCCGGAAUAUAUAGCCCUTT against Hdac10 | inactive: -0.706 |
| CCUUAUACCAUAGAGAACATT against Bfar | inactive: 1.14 |
| GCAAGAUCAAACCUUAGUGTT against Pbsn | inactive: 0.952 |
| GGAUGAUUUAUGGUUCUUGTT against Vmn1r76 | inactive: -0.382 |
